Consider 86 sequences from the supplement of paper PMC3334620.

Over roughly 33,000 sequences, “E-score (-0.5 to 0.5)” has its median near -0.0059; the highest 2% begin near 0.26. The list shows a part of the results.

The experiment concerns the target T1, Cin5 (UniProt P40917).
T1 sequence: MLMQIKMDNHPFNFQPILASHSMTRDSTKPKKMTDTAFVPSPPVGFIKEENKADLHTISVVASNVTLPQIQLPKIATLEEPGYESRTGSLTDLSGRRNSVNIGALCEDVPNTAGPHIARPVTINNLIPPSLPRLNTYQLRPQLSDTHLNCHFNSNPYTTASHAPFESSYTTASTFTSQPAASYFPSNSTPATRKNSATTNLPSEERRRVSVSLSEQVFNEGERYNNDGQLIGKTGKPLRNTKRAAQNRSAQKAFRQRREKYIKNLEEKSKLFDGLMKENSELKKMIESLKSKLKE
Put plainly: PBM E-score (8-mer binding enrichment) (E-score (-0.5 to 0.5)); higher = stronger / more preferred TF binding. The conditions noted are these: protein concentration: 100 nM; construct: GST-full length. Summed up:
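The E-score, a modified Wilcoxon-Mann-Whitney statistic, was computed by the Universal PBM Analysis Suite for every ungapped eight-base word pooled with its reverse complement. Scans behind it were normalised with masliner after bound GST-tagged yeast transcription factors were detected with fluorescent anti-GST. The proteins, at about 100-200 nM, had been applied to universal all-10-mer Agilent arrays made double-stranded by primer extension.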
Take TGCTGCAA: the “PBM E-score” value is 0.0664.
CCGACCAG: the “PBM E-score” value was -0.0784.
The same measure for CTACTCGC: -0.00413; for ATAGGTGA: 0.00129.
The same measure for CAGAGTTA: 0.184; for CGACCGTA: -0.0637; for CCACCCGA: 0.0559.
Take ACGATTGA: the “PBM E-score” value was found to be 0.11.
Consider GGGTTCCA, for which the “PBM E-score” value was -0.221.
The same measure for ACTGCAGG: -0.168; for GAGCCCTC: -0.268; for CTTCAAGC: -0.231.
The same measure for GTGCTATA: 0.101.
The same measure for AGGCATAT: -0.0567; for ATAGGAAC: -0.0175; for CCGGCCCG: -0.185.
As for GGTATACA, the “PBM E-score” value came to 0.147.
Regarding AAACAGAG, the “PBM E-score” value was 0.021.
The same measure for ATACCTTG: 0.0672.
Consider TACGTTAA, for which the “PBM E-score” value was 0.086.
As for AGAATCTC, the “PBM E-score” value is -0.0705.
Turning to CGTACCCA, the “PBM E-score” value was -0.0177.
As for GCTCATTA, the “PBM E-score” value came to 0.075.
The same measure for GTTGGAAA: -0.0276; for ATTACGGC: 0.181.
The same measure for CATTTGCG: 0.0375.
The same measure for AGTGCGAA: -0.0773.
For the sequence CTAGCCAA, the “PBM E-score” value came out at 0.139.
On to ATCCCTCA, for which the “PBM E-score” value is -0.121.
The same measure for AATACTCT: 0.115; for AGAAGACT: -0.152; for ACGTCCAG: -0.105.
The same measure for ATAATTTA: 0.332; for CGCTTGTA: 0.139; for GAGTCACC: -0.246.
Take GCCGGCAA: the “PBM E-score” value was 0.0652.
The same measure for ACCTAGGA: 0.063; for AAAGGGAG: -0.319; for CTATTGTA: 0.13.
The same measure for ACACTGGG: -0.0337.
The same measure for ATATCTTA: 0.242; for ACGCCAGG: -0.179; for AACTTACT: -0.00245.
Regarding GGAATGCC, the “PBM E-score” value turned out to be 0.0471.
The same measure for TCATCTCA: 0.242.
CCGATGTC: the “PBM E-score” value is -0.0198.
In the case of CAGCTAAC, the “PBM E-score” value was -0.207.
GCACCACA: the “PBM E-score” value was -0.122.
As to TAACGAGA, the “PBM E-score” value is 0.167.
The same measure for AGCACCAG: 0.0145; for CCGCCTCC: -0.27; for AATAGGTA: 0.207.
As for CGACCTTA, the “PBM E-score” value was determined as 0.061.
On to AAGTTCTA, for which the “PBM E-score” value is -0.0378.
As for AAAACCAT, the “PBM E-score” value is 0.151.
Take AGATGTGC: the “PBM E-score” value is 0.129.
The same measure for CGGTGGCA: -0.229.
The same measure for TTATTGAA: 0.198; for GCCGCTAA: -0.0216; for ATTCATGG: 0.0318.
For the sequence AGCTGTAC, the “PBM E-score” value was -0.0637.
The same measure for CAATTCTA: 0.0599; for ACCTGCAA: -0.11; for CGCCAAGA: -0.144.
The same measure for ATACATGA: 0.0965.
The same measure for CCCATGGA: 0.00052; for CATTGAAA: 0.0619; for ATGATCAC: 0.198.
For the sequence GGTCATTA, the “PBM E-score” value worked out at 0.0493.
For the sequence AACATATT, the “PBM E-score” value came out at 0.251.
The same measure for ACCCGCAG: 0.0669.
Regarding AAACCTAC, the “PBM E-score” value was 0.198.
On to ACGCCGCT, for which the “PBM E-score” value was 0.111.
For the sequence CACCGTGA, the “PBM E-score” value is -0.169.
On to CATAGTCC, for which the “PBM E-score” value is -0.0546.
The same measure for GATCTGCA: -0.0344; for TAATTTAA: 0.184; for AGAACCAT: 0.0227.
The same measure for ACGCAAGC: 0.121; for TCTTCTAA: 0.0284.
The same measure for AGCAGTTA: 0.0901; for AATACCTC: 0.0347; for CTTCTCTA: -0.153.
Regarding AAGCCGCC, the “PBM E-score” value is -0.129.
The same measure for ACTAAGGG: -0.174.
The same measure for AGAGTACC: -0.043.
